Patent US20140371160A1
These are yes or no findings as the source states them, for the method shown. Some results given as binding are weak or reduced against the parent protein; the word gives no strength.

The chains behind the UniProt entries cited, without tags or fusion partners. Where a name states a change or a piece, a line headed by the entry shows the natural chain unless it says otherwise. Residues count along the entry.
UniProt P00772, residues 27-266: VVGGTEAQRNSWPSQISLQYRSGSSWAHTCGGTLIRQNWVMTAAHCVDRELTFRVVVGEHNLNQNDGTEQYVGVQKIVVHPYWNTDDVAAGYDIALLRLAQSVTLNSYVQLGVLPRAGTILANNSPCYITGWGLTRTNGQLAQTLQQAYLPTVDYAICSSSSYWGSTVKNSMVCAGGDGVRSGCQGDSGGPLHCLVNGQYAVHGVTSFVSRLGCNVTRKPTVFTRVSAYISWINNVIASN
UniProt P01009: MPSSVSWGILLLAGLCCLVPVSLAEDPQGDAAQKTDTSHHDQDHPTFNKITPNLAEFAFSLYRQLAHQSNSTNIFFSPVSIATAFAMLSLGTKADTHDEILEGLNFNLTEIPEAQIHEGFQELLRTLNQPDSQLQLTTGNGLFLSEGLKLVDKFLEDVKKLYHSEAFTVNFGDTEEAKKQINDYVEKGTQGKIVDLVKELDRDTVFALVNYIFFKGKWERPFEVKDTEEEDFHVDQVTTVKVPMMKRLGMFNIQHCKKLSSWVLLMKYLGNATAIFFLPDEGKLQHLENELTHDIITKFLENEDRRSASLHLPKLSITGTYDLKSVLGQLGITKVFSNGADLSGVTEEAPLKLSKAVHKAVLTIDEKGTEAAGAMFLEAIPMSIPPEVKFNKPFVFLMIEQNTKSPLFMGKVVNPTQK

Biological target: Porcine pancreatic elastase (Calbiochem, Cat. 324682) (porcine) (UniProt P00772)
Experiment: elastase inhibition kinetics, AAA-pNA substrate

- binding: binds
Substance: Alpha-1 antitrypsin variant AT9N (glutamine at the 9th position substituted with asparagine), expressed in CHO-K1 cells (from UniProt P01009 25-418)
